# Reference: the supplement of paper PMC3334620
# In all, about 33,000 sequences were measured (“E-score (-0.5 to 0.5)”: median about -8e-05, highest 2% from about 0.23 on). This is one part of the list.
# Target: T1, Nrg2 (UniProt P38082)
# T1 sequence: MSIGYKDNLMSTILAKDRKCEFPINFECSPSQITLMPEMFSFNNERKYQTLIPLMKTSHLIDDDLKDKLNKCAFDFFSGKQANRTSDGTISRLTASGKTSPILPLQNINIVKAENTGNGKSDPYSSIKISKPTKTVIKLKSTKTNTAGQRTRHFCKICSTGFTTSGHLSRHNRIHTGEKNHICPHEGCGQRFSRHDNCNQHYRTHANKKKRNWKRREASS
# Test: PBM E-score (8-mer binding enrichment) (E-score (-0.5 to 0.5)); higher = stronger / more preferred TF binding
# Conditions: protein concentration: 100 nM; construct: GST-full length
# Method in brief: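 GST-tagged yeast TFs (full-length or DNA-binding domain) were made by PURExpress in vitro transcription/translation and applied at about 100-200 nM to universal all-10-mer Agilent arrays. The arrays were made double-stranded by primer extension, on fresh or once-stripped slides. Bound protein was detected with fluorescent anti-GST, and scans were normalised with masliner. Each ungapped eight-base word, pooled with its reverse complement, received an E-score (modified Wilcoxon-Mann-Whitney statistic) from the Universal PBM Analysis Suite.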
row,Sequence,PBM E-score
1,ACGTGACC,-0.211
2,GTGAGAGA,0.0439
3,GATGGACA,-0.0566
4,CACCCATA,-0.0612
5,CAAAGACC,-0.184
6,GAATCGGC,-0.0226
7,GTTCAAAA,-0.059
8,CCAGGTTA,-0.159
9,ACCGGCTC,-0.101
10,ACACCTCA,-0.0051
11,CTATGATC,0.0772
12,GACGCACA,0.0509
13,ATAACTAG,0.143
14,ACCCTGAG,0.368
15,TCCGAAAA,-0.0698
16,ACTCTCGG,0.046
17,CATAATAG,0.156
18,GTACCACA,0.0588
19,CGGGCAAC,0.0267
20,CGACCCGC,-0.208
21,CCATATCA,0.00491
22,AGCTTCAT,0.0414
23,GTTTTTTA,-0.021
24,ACGCCTGG,-0.123
25,GCTTCTCA,0.00982

row,Sequence,PBM E-score
1,CCGGTAGG,-0.00842
2,CCTCGGGA,-0.0352
3,AACTACTC,0.184
4,AGTCTTTC,-0.0294
5,CACTCGGC,0.105
6,ATGCACCA,-0.0156
7,AACTTTAC,0.0267
8,AAGCGAAT,0.15
9,GGATACCC,0.0171
10,CGCGTCCA,0.00465
11,CGCCTTTC,-0.113
12,ATAAATGA,0.0737
13,TAATTGAA,0.0286
14,CGAGATCG,-0.0299
15,GATCCCGC,0.111
16,AATCCCAT,-0.0333
17,CCAGCGCC,-0.167
18,AGACGAAA,0.0785
19,AAGATGCA,0.136
20,CCGAGTCC,-0.21
21,AAGGTCGA,0.18
22,GGTAGTAA,-0.102
23,GGTCGAAC,0.068
24,GCGCGCTA,0.205
25,GTATCTCA,0.132

row,Sequence,PBM E-score
1,AGATTGCG,0.00885
2,CACCGTCA,-0.182
3,AGTCATAA,-0.118
4,CTGGGAAA,0.101
5,AATCAGAC,0.136
6,CAGAGCTG,-0.0821
7,TCATCTAA,-0.0422
8,AGATGACA,-0.0177
9,GGAGAAAA,0.0559
10,CCACAACG,-0.0506
11,TATCCGGA,0.112
12,ATTCTTTA,-0.0742
13,GCCATGCA,0.0668
14,CAATCGTG,0.0123
15,CCGGGGCG,-0.124
16,CATCCACG,-0.0485
17,GCCGTAAA,0.178
18,ACGGAACG,0.00809
19,ACTAGTTA,-0.0387
20,CCTAATAC,0.116
21,ATGGCTGC,0.0232
22,GTCTAGTA,0.0934
23,TCAGAAGA,-0.202
24,CTTATAAA,0.131
25,CGCAAACA,0.203

# Taken from above.
# In PBM E-score, TATCCGGA shows 0.112
# In PBM E-score, ATTCTTTA shows -0.0742
# In PBM E-score, ACTAGTTA shows -0.0387
# In PBM E-score, CCACAACG shows -0.0506
# In PBM E-score, AGATGACA shows -0.0177
# In PBM E-score, ACGGAACG shows 0.00809
# In PBM E-score, TCAGAAGA shows -0.202

# Next records

row,Sequence,PBM E-score
1,CTCCTGTA,-0.111
2,CAAATAGC,0.00233
3,CAGTGGCC,-0.107
4,CCCCTTGC,-0.0115
5,ACGACCGC,-0.148
6,ATCTAGAT,-0.062
7,ACAAGTCC,-0.0791
8,AGGTTTGG,-0.0346
9,CAGTGCCA,-0.247
10,CTCTTAGC,-0.0671
11,ATGAACTC,0.0271
12,ATCAGTCA,0.0252
13,GAATAACA,0.265
14,GACCACTA,0.129
15,AATAGACA,0.0965
16,AAATTGCG,0.0271
17,CTCTATGA,-0.0917
18,AGGAGAAA,-0.0359
19,GTGTACAA,0.023
20,GGCTTTAC,-0.132
21,ACCGGAGT,-0.116
22,AAGCCATA,0.0571
23,ACGCTCCC,-0.182
24,TCTTTTCA,0.0352
25,GAACGGTC,-0.0333

row,Sequence,PBM E-score
1,AATATATC,0.111
2,AGGAAAAT,0.0204
3,ATTACCAC,-0.0537
4,AACTGACA,0.0695
5,GAAGCTTA,0.0125
6,GAGACGGC,-0.0458
7,CGGCACCA,-0.0985
8,CTATGTAC,0.0235
9,AACTAATC,0.0549
10,AATACCAA,0.11
11,GGATCAGA,-0.0493
12,GATTAAGA,0.137
13,CATGCCAC,0.0488
14,AACAAGAG,0.0791
15,CTTTCACA,0.136
16,AAAATTAA,0.0942
17,GCGGCCTA,-0.0907
18,CTACTCAG,-0.0405
19,CTAAGGGA,0.0517
20,TACGTGAA,-0.111
21,AATGCCTG,-0.164
22,AGCGGTCC,-0.0422
23,CATCACAA,0.06
24,TATCGCCA,0.0646
25,CCCGACGG,0.0268

row,Sequence,PBM E-score
1,ATAAGTTC,0.0764
2,ACAAGTCT,-0.0606
3,TATCGACA,0.0689
4,GTGATCCA,-0.0317
5,GAACTACA,0.0639
6,CACTCGTC,-0.0519
7,AGACATAT,0.117
8,AAAGCCGG,0.155
9,CGACATCA,0.0768
10,AGCGGCGC,-0.0829
11,AGATAGTA,0.102
12,GGGAGCCA,-0.229
13,GAAGGGTC,0.0665
14,GCCCTTAA,0.0375
15,CCATAACA,0.183
16,AGTCTTAA,-0.173
17,GTTGAGTA,0.102
18,CTAGCTAA,-0.0409
19,ACCGCTCG,-0.0474
20,ATTGGGTC,0.174
21,ATTTCTAA,-0.121
22,AGCGCGAC,0.12
23,CCCAGAAC,0.0532
24,AATCCTAC,-0.254
25,ATTCGGCA,-0.1

# A different layout for some results above:
row	Sequence	PBM E-score
9	ACCGGCTC	-0.101
10	ACACCTCA	-0.0051

# (cont.)

row,Sequence,PBM E-score
1,AGTCCAGC,-0.209
2,CATCAAGC,0.0474
3,GGTTAACC,0.0695
4,AAGCGTCA,0.0781
5,GGCCGCCC,-0.133
6,AACCTTTG,-0.124
7,AACATTCC,0.00997
8,CGATTCCA,0.0891
9,AGGTTACC,0.107
10,CGAGGTTC,0.142
11,ATGAAACC,0.122
12,AGTCCCAA,-0.0144
13,AATTGTGA,0.116
14,CGGAGTTC,0.0454
15,TGTGAGAA,0.183
16,ACGGGATC,-0.068
17,GAGAGTCA,-0.128
18,TCCACCCA,-0.127
19,ATCAGCTC,0.0372
20,ATGTAGTA,0.154
21,GCACTGAA,0.00332
22,TAAGTCTA,-0.188
